No constants are given. Whether binding was seen depends on the method and setting. In cells and extracts the contact can be indirect. Some entries that bind do so weakly or less than the wild type.
Target: T1, Claudin-2 (mouse, endogenous in 2776 cells) (mouse (endogenous in 4T1-derived 2776 cells)) (UniProt O88552)
T1 sequence: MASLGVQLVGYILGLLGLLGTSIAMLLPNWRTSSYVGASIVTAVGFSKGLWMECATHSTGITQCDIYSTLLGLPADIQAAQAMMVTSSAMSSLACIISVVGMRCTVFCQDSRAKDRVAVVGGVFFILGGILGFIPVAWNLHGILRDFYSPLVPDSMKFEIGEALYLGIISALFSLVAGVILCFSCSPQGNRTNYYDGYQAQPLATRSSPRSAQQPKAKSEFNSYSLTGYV
Experiment: co-IP; whole-cell lysates of 2776 liver-aggressive 4T1 cells; reciprocal immunoprecipitation of Claudin-2 and Afadin; immunoblot

By UniProt entry, the sequences of proteins in these tests, tags left out.
UniProt Q9QZQ1: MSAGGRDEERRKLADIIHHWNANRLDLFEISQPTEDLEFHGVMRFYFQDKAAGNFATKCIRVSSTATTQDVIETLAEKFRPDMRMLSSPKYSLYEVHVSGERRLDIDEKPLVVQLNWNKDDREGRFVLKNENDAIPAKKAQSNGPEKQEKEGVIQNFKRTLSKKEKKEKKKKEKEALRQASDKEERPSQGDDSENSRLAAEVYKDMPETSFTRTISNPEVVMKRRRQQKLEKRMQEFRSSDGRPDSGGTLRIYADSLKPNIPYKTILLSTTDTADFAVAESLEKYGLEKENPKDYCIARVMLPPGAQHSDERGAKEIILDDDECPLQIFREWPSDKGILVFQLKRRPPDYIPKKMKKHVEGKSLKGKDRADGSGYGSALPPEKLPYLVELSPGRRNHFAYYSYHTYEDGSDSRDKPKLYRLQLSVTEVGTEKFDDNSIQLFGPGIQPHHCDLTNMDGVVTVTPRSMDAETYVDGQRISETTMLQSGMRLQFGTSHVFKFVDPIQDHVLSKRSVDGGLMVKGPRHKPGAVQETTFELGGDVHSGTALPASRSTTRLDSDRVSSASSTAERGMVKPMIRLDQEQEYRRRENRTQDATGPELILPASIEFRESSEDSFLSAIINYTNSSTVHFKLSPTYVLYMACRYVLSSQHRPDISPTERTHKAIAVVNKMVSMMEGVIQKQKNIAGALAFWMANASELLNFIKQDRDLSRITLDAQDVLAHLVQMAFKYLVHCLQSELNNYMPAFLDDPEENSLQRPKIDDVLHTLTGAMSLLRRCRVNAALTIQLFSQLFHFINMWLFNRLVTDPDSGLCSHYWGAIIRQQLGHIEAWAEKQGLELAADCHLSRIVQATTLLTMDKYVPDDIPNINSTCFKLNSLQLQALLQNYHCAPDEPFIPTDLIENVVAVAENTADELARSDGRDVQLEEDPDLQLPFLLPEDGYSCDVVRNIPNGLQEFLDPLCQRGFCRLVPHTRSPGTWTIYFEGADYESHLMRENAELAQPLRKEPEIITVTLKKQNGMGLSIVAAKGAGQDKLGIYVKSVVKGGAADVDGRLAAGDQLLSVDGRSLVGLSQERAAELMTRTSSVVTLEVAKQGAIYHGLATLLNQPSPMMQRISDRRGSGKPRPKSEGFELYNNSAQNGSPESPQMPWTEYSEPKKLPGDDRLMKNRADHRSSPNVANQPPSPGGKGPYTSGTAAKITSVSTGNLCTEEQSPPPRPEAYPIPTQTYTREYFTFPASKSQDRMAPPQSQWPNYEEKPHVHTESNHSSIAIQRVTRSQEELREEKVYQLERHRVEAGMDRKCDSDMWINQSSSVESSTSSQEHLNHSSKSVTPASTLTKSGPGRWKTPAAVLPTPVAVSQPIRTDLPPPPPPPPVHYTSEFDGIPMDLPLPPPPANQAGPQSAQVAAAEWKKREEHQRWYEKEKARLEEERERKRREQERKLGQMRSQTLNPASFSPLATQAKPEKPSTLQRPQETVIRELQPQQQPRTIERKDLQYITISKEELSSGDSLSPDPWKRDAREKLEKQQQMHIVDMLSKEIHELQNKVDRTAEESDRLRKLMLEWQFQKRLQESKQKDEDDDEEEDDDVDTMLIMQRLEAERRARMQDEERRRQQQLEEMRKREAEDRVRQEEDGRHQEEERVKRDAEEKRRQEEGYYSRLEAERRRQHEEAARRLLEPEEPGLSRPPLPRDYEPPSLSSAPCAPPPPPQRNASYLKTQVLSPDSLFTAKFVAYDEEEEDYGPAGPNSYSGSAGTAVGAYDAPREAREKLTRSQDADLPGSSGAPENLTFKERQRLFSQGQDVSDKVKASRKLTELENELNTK

Afadin (mouse, endogenous in 2776 cells) (from UniProt Q9QZQ1 1-1820)
binding: binds
